{"source": "patent US20210220340A1", "about": "“COMPOSITION FOR PREVENTION OR TREATMENT OF NEURODEGENERATIVE DISEASE” (THE ASAN FOUNDATION, priority 2018, published 2021)", "system": "all PDE isoforms", "test": "HTS using all PDE isoforms as targets", "type": "biochemical", "settings": "Example 18 screening, compared with cilostazol", "procedure": "Compounds included in the library of 800 FDA-approved drugs were diluted 1/4 from a concentration of 100 μM and dispensed into each well in 96-well plates, and mixed with a PDE reactant to allow a PDE reaction with the drug for 1 hour at a constant temperature.\nThe experiment was carried out in the same manner as used in screening of the FDA-approved drug library. […] Each of the screening library drugs were diluted 1/4 from 100 μM and dispensed into each well in 96-well plates, and mixed with a PDE reactant, followed by allowing a reaction between the drug and PDE for 1 hour for storage. After a stop solution was mixed with a AMP detection agent, the mixture was dispensed at 20 μl per well to allow a reaction for 10 minutes, followed by immediately measuring luminescence, and the experiment was performed according to a protocol provided by the kit used herein.\nThe first selection started with PDE3 as a target, and after candidate drugs were selected, all PDE isoforms were tested."}
{"smiles": "CNC(=O)c1ccccc1Sc1ccc2c(/C=C/c3ccccn3)n[nH]c2c1", "note": "[axitinib]", "values": [{"measurement": "inhibitory efficacy in all PDE isoforms", "result": "high inhibitory efficacy"}]}
